In PubChem BioAssay AID540256 (National Center for Advancing Translational Sciences (NCATS), 2011):
The campaign covered roughly 300,000 compounds. About 3,700 (1.2%) were called active. The inconclusive results got no clear call from the source; some entries with a clear call stand among them for comparison. Calls come from the whole dose curve; tested in HEK293 cells. Potencies beside an inconclusive call are fits to weak or partial responses and may not hold up.
% is set by controls: 0 for no effect and ±100 for the full control effect; potency is the fitted concentration of half-maximal effect.

Experiment: qHTS for Inhibitors of binding or entry into cells for Lassa Virus; note: nearly all actives have a fitted effect of over 50% in size
Conditions: Lassa virus pseudotype entry inhibition, cell reporter; activity change, negative = inhibition: at 37.9 µM (top of the series) unless noted
In the case of `CCC1CCc2sc(C(=O)N3CCCN(C)CC3)cc2C1` (centres undefined), the “activity change, negative = inhibition” value is reported as inactive: -2.5% [at 46.1 µM]. With `Cc1ccccc1-c1noc(CSc2nnc(Cc3ccccc3)n2-c2ccc(F)cc2)n1` the Potency was inconclusive: 15.8 µM [inhibitor, partial curve, poor fit]. With `CC(=O)c1ccc(N(C(=O)CNC(=O)c2ccco2)C(C(=O)NC2CCCC2)c2ccc(C)o2)cc1` (centres undefined) the Potency was inconclusive: 5.62 µM [inhibitor, single point]. For `Cc1occc1C(=O)O/N=C(\N)c1ccc(Cl)cc1`, the Potency was inconclusive: 35.5 µM [inhibitor, single point]. In the case of `CCn1c(CSCc2ccc(F)cc2)nnc1SCC(=O)N1CCN(c2ccccc2)CC1`, the Potency is reported as inconclusive: 8.91 µM [inhibitor, partial curve, poor fit]. For `CCCn1c(COc2ccccc2)nc2ccccc21`, the “activity change, negative = inhibition” value was inactive: 10.9%. For `COC(=O)c1c(NC(=O)c2ccc(S(=O)(=O)N3CCCCC3C)cc2)sc2c1CCN(C(C)C)C2` (centres undefined), the Potency was inconclusive: 4.47 µM [activator, partial curve]. With `Cc1cccc(N(Cc2ccccc2)C(=O)CSC(C)C(=O)Nc2cc(C)on2)c1` (centres undefined) the Potency was inconclusive: 11.2 µM [inhibitor, partial curve]. For `C=CCN(C(=O)C1=NN(C2CCS(=O)(=O)C2)C(=O)CC1)c1nc(-c2ccc([N+](=O)[O-])cc2)cs1` (centres undefined), the Potency was inconclusive: 2.82 µM [activator, partial curve, poor fit]. With `Cc1nc2ccc(NC(=O)c3ccccc3)cc2s1` the “activity change, negative = inhibition” value was inactive: 6.98%. With `Cc1ccc(CNC(=O)CSc2nccn(-c3ccc(C)c(F)c3)c2=O)cc1` the “activity change, negative = inhibition” value was inactive: -16.8%. For `O=C(NCCCN1CCOCC1)c1nn(-c2ccccc2)c(=O)c2ccccc12`, the Potency was inconclusive: 1.26 µM [activator, single point]. With `COc1ccc(CNC(=O)CN(C)c2nn3c(=O)cc(C)nc3s2)cc1` the “activity change, negative = inhibition” value was inactive: 5.22% [at 46.1 µM]. With `COc1cc2c(cc1NC(=O)CN1C(=O)NC3(CCc4ccccc43)C1=O)oc1ccccc12` (centres undefined) the Potency was inconclusive: 29.1 µM [inhibitor, single point]. In the case of `O=C(Nc1cccc(C(=O)O)c1)/C(=C\c1ccco1)NC(=O)c1ccc(Br)o1`, the “activity change, negative = inhibition” value is reported as inactive: -7.02% [at 46.1 µM]. In the case of `C=C[C@@H]1C[C@H](C=C)OP(=O)(OCC(=C)C)O1` (some centres undefined), the Potency is reported as inconclusive: 3.97 µM [activator, full curve, poor fit]. In the case of `Cc1cc(O)cc(=O)n1C`, the “activity change, negative = inhibition” value is reported as inactive: -18.3% [at 46.1 µM]. In the case of `CCSc1nnc([C@H](Cc2ccccc2)NC(=O)OC(C)(C)C)o1`, the Potency is reported as inconclusive: 0.461 µM [inhibitor, partial curve, poor fit]. With `Cn1nnc(NC(=O)c2ccco2)n1` the Potency was inconclusive: 29.1 µM [activator, single point]. In the case of `COc1ccc(-c2noc(CCC(=O)NCC3CCCO3)n2)cc1` (centres undefined), the “activity change, negative = inhibition” value is reported as inactive: 11.5%. In the case of `CCC(=O)NNc1ccc(Br)cc1`, the Potency is reported as inconclusive: 10 µM [inhibitor, partial curve]. In the case of `COc1ccc(CCNC(=S)NCCc2ccc(OC)c(OC)c2)cc1OC`, the Potency is reported as inconclusive: 6.31 µM [activator, single point]. For `COc1ccc(C2NC(=O)c3ccccc3N2)cc1` (centres undefined), the Potency was inconclusive: 0.891 µM [activator, single point]. For `O=C(Nc1ccc(OCC(=O)N2CCOCC2)cc1)c1ccccc1F`, the Potency was inconclusive: 35.5 µM [inhibitor, single point]. With `CCOc1ccccc1C(=O)N(Cc1ccc(N(C)C)cc1)Cc1ccco1` the Potency was inconclusive: 11.2 µM [inhibitor, partial curve, poor fit]. In the case of `CC1(C)Oc2ccc3ccc(=O)oc3c2/C(=C/NC2CCCCC2)C1=O`, the Potency is reported as inconclusive: 29.1 µM [inhibitor, single point]. With `C/C(=N\NC(=O)c1ccccc1O)c1ccc(NC(=O)Cc2ccccc2)cc1` the “activity change, negative = inhibition” value was inactive: -1.37%. For `C=C(C)COc1ccc(-c2[nH]ncc2Oc2ccccc2OC)c(O)c1`, the Potency was inconclusive: 10.3 µM [inhibitor, partial curve]. In the case of `CCS(=O)(=O)c1ccc(O)c(NC(=O)/C=C/c2ccccc2)c1`, the “activity change, negative = inhibition” value is reported as inactive: 4.15%. With `Clc1ccc2nc(-c3ccc4c(c3)OCO4)cn2c1` the Potency was inconclusive: 7.08 µM [inhibitor, full curve, poor fit]. For `O=C(NCCCn1ccnc1)c1cccc(S(=O)(=O)Nc2ccc(Br)cc2)c1`, the “activity change, negative = inhibition” value was inactive: 5.47%. In the case of `COC(=O)CSC1=C(C#N)C(c2ccc(C)o2)CC(=O)N1` (centres undefined), the Potency is reported as inconclusive: 0.891 µM [inhibitor, full curve, poor fit]. In the case of `CCOC(=O)c1ccc2c(c1)n(CC)c(/C=C/N(C)c1ccccc1)[n+]2CC`, the Potency is reported as inconclusive: 8.91 µM [inhibitor, partial curve, poor fit]. With `Cc1cccc(N2CCN(C(=S)c3ccc([N+](=O)[O-])cc3)CC2)c1` the “activity change, negative = inhibition” value was inactive: -20.8%. With `Cc1c(Cl)cccc1Nc1nc(N)nc(CN2CCc3ccccc3C2)n1` the “activity change, negative = inhibition” value was inactive: -3.96%. In the case of `COc1ccc(C(=O)Nn2c(SCc3cccc([N+](=O)[O-])c3)nc3ccccc3c2=O)cc1`, the Potency is reported as active: 3.26 µM. With `CCC(=O)Nc1cccc(-n2nnnc2SCC(=O)N(C(C)C)C(C)C)c1` the Potency was inconclusive: 12.6 µM [inhibitor, partial curve]. With `CC1Cc2ccccc2N1C(=S)Nc1ccc(S(N)(=O)=O)cc1` (centres undefined) the Potency was inconclusive: 5.17 µM [activator, full curve, poor fit]. With `COc1ccc(C(=O)c2cn(Cc3ccccc3F)c3ccc(F)cc3c2=O)cc1` the Potency was inconclusive: 7.08 µM [inhibitor, partial curve, poor fit]. For `CSCCC(NC(=O)c1ccccc1)C(=O)OCC(=O)Nc1ccc(C)c(Cl)c1` (centres undefined), the “activity change, negative = inhibition” value was inactive: -2.78%. In the case of `COc1ccc2c(c1)c(C(=O)N/N=C/c1ccccc1Cl)c(C)n2C`, the Potency is reported as inconclusive: 35.5 µM [inhibitor, single point]. With `COc1ccc(OC)c(C2C=C(C34CC5CC(CC(C5)C3)C4)NC(=S)N2)c1` (centres undefined) the Potency was inconclusive: 29.1 µM [inhibitor, single point]. With `COC(=O)CN1C(=O)S/C(=C/c2ccc(N3CCCCC3)o2)C1=O` the Potency was inconclusive: 6.51 µM [activator, partial curve]. With `Cc1ccc(-c2nnc(Nc3ccc(Cl)cc3)c3ccccc23)cc1S(=O)(=O)NCC1CCCO1` (centres undefined) the “activity change, negative = inhibition” value was inactive: -28.8% [at 46.1 µM]. With `Nc1nc(N)nc(COc2ccccc2)n1` the “activity change, negative = inhibition” value was inactive: -7.74%. For `COc1ccc(/C=C/c2nc3ccccc3n2Cc2ccccc2OC)cc1`, the Potency was inconclusive: 14.1 µM [inhibitor, single point]. In the case of `COc1ccc(CC(=O)N2CCN(C(=O)c3ccco3)CC2)cc1`, the Potency is reported as inconclusive: 2.91 µM [inhibitor, partial curve, poor fit]. With `Cc1nc(OCc2ccccc2)c2ccccc2n1` the Potency was inconclusive: 17.8 µM [inhibitor, partial curve, poor fit]. In the case of `CCn1c(=O)c(C(=O)NCc2ccc3c(c2)OCO3)c(O)c2ccccc21`, the Potency is reported as inconclusive: 6.31 µM [activator, full curve, poor fit]. With `COc1ccc(CNC(=O)c2oc3c(c2C)-c2nn(Cc4ccccc4Cl)cc2CC3)cc1` the “activity change, negative = inhibition” value was inactive: -12.6% [at 46.1 µM]. In the case of `COc1ccc(Cn2nnc3c(=O)[nH]c(C4CCCN(C(=O)c5ccccc5Cl)C4)nc32)cc1OC` (centres undefined), the “activity change, negative = inhibition” value is reported as inactive: 20.8% [at 46.1 µM]. In the case of `CC/C(=C\C(=O)c1cccnc1)Nc1ccc(C)c(C)c1`, the “activity change, negative = inhibition” value is reported as inactive: -30%. For `Cc1ccccc1-n1c(C)nnc1SCC(=O)NC1CCCc2ccccc21` (centres undefined), the “activity change, negative = inhibition” value was inactive: 2.44%. In the case of `Cc1nn(-c2ccccc2)c2nc(N)c(C#N)c(-c3ccc(O)c(O)c3)c12`, the Potency is reported as inconclusive: 35.5 µM [inhibitor, single point]. With `Cc1cc(Oc2ccc3ccccc3c2)nc(SCC(=O)c2ccccc2)n1` the Potency was inconclusive: 25.9 µM [inhibitor, single point]. With `O=C1CC(c2ccccc2)CC(O)=C1C=NC1CCCCCC1` (centres undefined) the Potency was inconclusive: 9.2 µM [inhibitor, partial curve, poor fit]. In the case of `Cc1cc(N2C(=O)C(=O)/C(=C(/O)c3ccccc3)C2c2cccs2)no1` (centres undefined), the “activity change, negative = inhibition” value is reported as inactive: 16.3%. With `CCc1cc(C(=O)c2ccc(OC)cc2)c(NC(=O)CN2CCN(C)CC2)s1` the Potency was inconclusive: 3.16 µM [inhibitor, partial curve, poor fit]. With `CCCCC(=O)Nc1cccc(-c2csc(-c3ccccc3)n2)c1` the Potency was inconclusive: 3.55 µM [inhibitor, single point]. For `CSCCC1NC(=O)N(CC(=O)N2N=C(c3ccc(Cl)cc3)CC2c2ccco2)C1=O` (centres undefined), the Potency was inconclusive: 35.5 µM [inhibitor, partial curve, poor fit]. For `CCN(C(=O)Cn1nc2c3cc(F)ccc3n(Cc3cccc(C)c3)cc-2c1=O)c1cccc(C)c1`, the “activity change, negative = inhibition” value was inactive: 5.37% [at 46.1 µM]. With `COc1ccc(C(CNC(=O)c2cc(F)c(F)c(F)c2F)N2CCOCC2)cc1` (centres undefined) the Potency was inconclusive: 11.2 µM [inhibitor, partial curve, poor fit]. For `CCN(CC)CCOC(=O)c1ccc(NC(=O)c2nn(-c3ccc(C)cc3)c(=O)c3c2c2ccccc2n3C)cc1`, the “activity change, negative = inhibition” value was inactive: -5.7% [at 46.1 µM]. In the case of `COc1ccc(NC(=O)c2c(NC(=O)COc3ccc(Cl)cc3)sc3c2CCCCC3)cc1`, the “activity change, negative = inhibition” value is reported as inactive: -19% [at 46.1 µM]. In the case of `COc1ccc(C)cc1S(=O)(=O)N1c2ccc(C)cc2C2CN(C)CCC21` (centres undefined), the Potency is reported as inconclusive: 35.5 µM [inhibitor, single point]. For `COc1ccccc1C(=O)N/N=C(\C)c1cccnc1`, the “activity change, negative = inhibition” value was inactive: 9.91%. For `COc1ccc2oc(C(=O)OCC(=O)N3CCCCC3C)c(C)c2c1` (centres undefined), the “activity change, negative = inhibition” value was inactive: 1.57%. For `C=C(C)CCC1(C)NC(=O)N(c2ccccc2)N1` (centres undefined), the Potency was inconclusive: 35.5 µM [inhibitor, single point]. With `Cc1cc(C)cc(-n2c(SC(C)C(=O)NCc3ccc4c(c3)OCO4)nc3ccccc3c2=O)c1` (centres undefined) the Potency was inconclusive: 11.2 µM [inhibitor, partial curve, poor fit].
